Experimental data published in publication PMC5927464 (2018).
Numbering of substitutions follows the chain as printed. Names and notes keep the numbering of the source. No constants are given. Whether binding was seen depends on the method and setting. In cells and extracts the contact can be indirect. Binding calls can cover weak binding; strength is not graded here. Tags and fused reporters may be left off the sequences shown.

B1: Flag-HuRNase L—K47, D50, A51 (enzyme, UniProt Q05823 21-719)
chain: AAVEDNHLLIKAVQNEDVDLVQQLLEKGADANFQEEEGGWTPLHNAVQMSREDIVELLLRHGADPVLRKKNGATPFILAAIAGSVKLLKLFLSKGADVNECDFYGFTAFMEAAVYGKVKALKFLYKRGANVNLRRKTKEDQERLRKGGATALMDAAEKGHVEVLKILLDEMGADVNACDNMGRNALIHALLSSDDSDVEAITHLLLDHGADVNVRGERGKTPLILAVEKKHLGLVQRLLEQEHIEINDTDSDGKTALLLAVELKLKKIAELLCKRGASTDCGDLVMTARRNYDHSLVKVLLSHGAKEDFHPPAEDWKPQSSHWGAALKDLHRIYRPMIGKLKFFIDEKYKIADTSEGGIYLGFYEKQEVAVKTFCEGSPRAQREVSCLQSSRENSHLVTFYGSESHRGHLFVCVTLCEQTLEACLDVHRGEDVENEEDEFARNVLSSIFKAVQELHLSCGYTHQDLQPQNILIDSKKAAHLADFDKSIKWAGDPQEVKRDLEDLGRLVLYVVKKGSISFEDLKAQSNEEVVQLSPDEETKDLIHRLFHPGEHVRDCLSDLLGHPFFWTWESRYRTLRNVGNESDIKTRKSESEILRLLQPGPSEHSKSFDKWTTKINECVMKKMNKFYEKRGNFYQNTVGDLLKFIRNLGEHIDEEKHKKMKLKIGDPSLYFQKTFPDLVIYVYTKLQNTEYRKHFPQT
B2: Flag-HuRNase L—D26, S27, S28, K47, D50, A51 (enzyme, UniProt Q05823 21-719)
chain: B1 chain with N6D, H7S, L8S
B3: Flag-HuRNase L—D26, S27, S28 (enzyme, UniProt Q05823 21-719)
chain: B1 chain with N6D, H7S, L8S, K27G, D30N, A31V
B4: Flag-MuRNase L—N26, H27, L58, G47, N50, V51 (enzyme, UniProt Q05921 1-735)
chain: METPDYNTPQGGTPSAGSQRTVVEDNHLLIKAVQKGDVVRVQQLLEGGANVNACEDTWGWTPLHNAVQAGRVDIVNLLLSHGADPHRRKKNGATPFIIAGIQGDVKLLEILLSCGADVNECDENGFTAFMEAAERGNAEALRFLFAKGANVNLRRQTTKDKRRLKQGGATALMSAAEKGHLEVLRILLNDMKAEVDARDNMGRNALIRTLLNWDCENVEEITSILIQHGADVNVRGERGKTPLIAAVERKHTGLVQMLLSREGINIDARDNEGKTALLIAVDKQLKEIVQLLLEKGADKCDDLVWIARRNHDYHLVKLLLPYVANPDTDPPAGDWSPHSSRWGTALKSLHSMTRPMIGKLKIFIHDDYKIAGTSEGAVYLGIYDNREVAVKVFRENSPRGCKEVSCLRDCGDHSNLVAFYGREDDKGCLYVCVSLCEWTLEEFLRLPREEPVENGEDKFAHSILLSIFEGVQKLHLHGYSHQDLQPQNILIDSKKAVRLADFDQSIRWMGESQMVRRDLEDLGRLVLYVVMKGEIPFETLKTQNDEVLLTMSPDEETKDLIHCLFSPGENVKNCLVDLLGHPFFWTWENRYRTLRNVGNESDIKVRKCKSDLLRLLQHQTLEPPRSFDQWTSKIDKNVMDEMNHFYEKRKKNPYQDTVGDLLKFIRNIGEHINEEKKRGMKEILGDPSRYFQETFPDLVIYIYKKLKETEYRKHFPQPPPRLSVPEAVGPGGIQS
B5: Flag-MuRNase L H311A (enzyme, UniProt Q05921 1-735)
chain: B4 chain with N26D, H27S, L28S, G47K, N50D, V51A, H311A
B6: Flag-MuRNase L–G47, N50, V51 (enzyme, UniProt Q05921 1-735)
chain: B4 chain with N26D, H27S, L28S
B7: Flag-MuRNase L K89A (enzyme, UniProt Q05921 1-735)
chain: B4 chain with N26D, H27S, L28S, G47K, N50D, V51A, K89A
B8: Flag-MuRNase L W60A (enzyme, UniProt Q05921 1-735)
chain: B4 chain with N26D, H27S, L28S, G47K, N50D, V51A, W60A
B9: Flag-MuRNase L—R80, Y81 (enzyme, UniProt Q05921 1-735)
chain: B4 chain with N26D, H27S, L28S, G47K, N50D, V51A, S80R, H81Y
B10: Flag-MuRNase L R155A (enzyme, UniProt Q05921 1-735)
chain: B4 chain with N26D, H27S, L28S, G47K, N50D, V51A, R155A
B11: Flag-MuRNase L F126A (enzyme, UniProt Q05921 1-735)
chain: B4 chain with N26D, H27S, L28S, G47K, N50D, V51A, F126A
B12: Flag-MuRNase L E131A (enzyme, UniProt Q05921 1-735)
chain: B4 chain with N26D, H27S, L28S, G47K, N50D, V51A, E131A
B13: Flag-MuRNase L R309A (enzyme, UniProt Q05921 1-735)
chain: B4 chain with N26D, H27S, L28S, G47K, N50D, V51A, R309A

Biological target: HA-tagged L* protein of TMEV strain DA (HA-L*DA) (Theiler's murine encephalomyelitis virus, strain DA)
Experiment: co-IP; Flag-tagged RNase L constructs and N-terminally HA-tagged L* co-expressed in 293T cells; HA-L* immunoprecipitated from lysates with anti-HA antibody and protein A/G magnetic beads; immunoblot with anti-Flag and anti-HA

Row | Binder | binding
1 | B1 | binds
2 | B2 | binds
3 | B3 | no binding
4 | B4 | binds weakly
5 | B5 | binds
6 | B6 | binds
7 | B7 | binds
8 | B8 | binds
9 | B9 | binds
10 | B10 | binds
11 | B11 | binds
12 | B12 | binds
13 | B13 | binds
